Values from PubChem BioAssay AID686943 (Drosophila RNAi Screening Center, 2013).

- Aim: 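Knockdowns that increase or decrease active ERK after insulin receptor stimulation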 (primary screen)
- Cell system: Drosophila S2R+ haemocyte-like cells expressing YFP-tagged ERK (Rolled)
- Knock-down reagent: long dsRNA against Drosophila genes
- Challenge: insulin stimulation versus unstimulated cells; dose and duration not given
- Measurement: 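Antibody staining for doubly phosphorylated ERK divided by ERK-YFP signal, as plate z-scores, in insulin-treated and untreated cells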
- Direction: replicate 1, z-score of dpERK with insulin and replicate 2, z-score of dpERK with insulin: higher = more active ERK per ERK-YFP after insulin; replicate 1, z-score of dpERK under basal conditions: higher = more basal active ERK per ERK-YFP; replicate 1, z-score of ERK-YFP with insulin: higher = more YFP-tagged ERK signal
In all, the deposit lists about 23,000 reagents; shown is an unselected part of those with a known target gene and a result. 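Extra replicates exist only for a retested subset of genes; insulin dose and duration not given; both raised and lowered dpERK matter.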 A plus sign joins genes that one reagent is predicted to hit. Not stated in the record: the amount of reagent, the time to read-out.

| Gene | amplicon | replicate 1, z-score of dpERK with insulin | replicate 2, z-score of dpERK with insulin | replicate 1, z-score of dpERK under basal conditions | replicate 1, z-score of ERK-YFP with insulin |
| --- | --- | --- | --- | --- | --- |
| Grip71 | DRSC02042 | 2.05 | 0.29 | 3.64 | -0.87 |
| Blos1 | DRSC05970 | 0.28 | 0.59 | 0.92 | -0.1 |
| Stat92E | DRSC16870 | 2.21 | 1.95 | 1.45 | 0.17 |
| Osi22 (Osiris 22) | DRSC16442 | -0.14 | 0.01 | 0.86 | 0.2 |
| CG43339 | DRSC02466 | 0.35 | -0.13 | 0.84 | 0.23 |
| CG11929 | DRSC00339 | 0.03 | 0.45 | -0.36 | -0.83 |
| CG9030 | DRSC20139 | 0.48 | 1.16 | -0.41 | 0.12 |
| CG31515 | DRSC13610 | 2.68 | 4.24 | 6.52 | -7.5 |
| Lnk | DRSC16729 | -1.98 | -1.69 | -0.12 | -0.53 |
| CG1137 | DRSC12529 | 0.26 | 0.2 | 0.5 | 0.07 |
| ninaG | DRSC16102 | -0.07 | 0.33 | 0.13 | 1.38 |
| l(3)mbt (lethal (3) malignant brain tumor) | DRSC16983 | 0.6 | -0.65 | 0.13 | 0.29 |
| E(spl)m8-HLH (Enhancer of split m8, helix-loop-helix) | DRSC16654 | 0.03 | -0.08 | 0.48 | 0.58 |
| Vha13 (Vacuolar H[+] ATPase 13kD subunit) | DRSC16895 | -0.17 | 0.86 | -0.36 | 0.18 |
| Sh (Shaker) | DRSC19214 | -3.48 | -2.51 | -4.09 | -1.17 |
| Sh (Shaker) | DRSC19220 | 1.13 | 1.35 | -0.12 | -0.32 |
| Sh (Shaker) | DRSC19785 | 0.98 | -0.57 | 0.52 | 0.18 |
| Sh (Shaker) | DRSC20055 | 0.89 | 0.58 | -0.89 | -0.11 |
| Sh (Shaker) | DRSC22567 | 0.71 | 0.13 | 0.11 | 0.92 |
| CG42449 | DRSC18084 | 0.65 | -0.09 | 0.81 | 0.14 |
| CG30116 | DRSC05935 | 0.16 | -0.14 | 0.69 | 0.07 |
| CG30116 | DRSC06685 | 0.29 | -0.01 | 0.23 | 0.57 |
| CG5756 | DRSC06950 | 0.19 | 0.7 | 0.46 | 0.07 |
| Srg3 (Sting-regulated gene 3) | DRSC08984 | -0.64 | -0.22 | -0.51 | 0.02 |
| Srg3 (Sting-regulated gene 3) | DRSC10178 | 0.83 | -0.51 | -0.54 | -0.13 |
| BORCS7 + CG13430 | DRSC06392 | -0.22 | 0.16 | -0.03 | 0.43 |
| BORCS7 + CG13430 | DRSC06707 | -1.48 | -2.32 | -1.22 | 0.6 |
| CG17375 | DRSC02614 | 0.23 | 0.23 | 0 | 0.51 |
| CG14419 | DRSC17916 | -0.24 | 0 | -0.38 | 0.47 |
| Cyp311a1 (Cytochrome P450 311a1) | DRSC20239 | 1.34 | 0.94 | 0.59 | 0.17 |
| CG32170 | DRSC09452 | 0.37 | 0.9 | -1 | -0.09 |
| hng1 (hinge1) | DRSC04555 | 0.34 | 1 | 0.28 | 1.38 |
| Prosalpha4 (Proteasome alpha4 subunit) | DRSC20271 | -1.47 | -1.26 | -1.51 | -0.47 |
| prage | DRSC17957 | 0.38 | 3.43 | 0.8 | -0.21 |
| prage | DRSC17958 | -0.99 | -1.86 | -1.66 | 5.03 |
| prage | DRSC18490 | -0.8 | 0.16 | 1.34 | -1.89 |
| prage | DRSC18497 | 0.42 | 0.37 | -0.14 | -0.51 |
| stil (stand still) | DRSC07699 | -0.15 | 0.26 | 0.22 | 0.25 |
| Rab9D + Rab9Fa + Rab9E | DRSC19853 | -0.54 | -0.5 | – | 0.46 |

Already shown: an excerpt of the list.
| Gene | amplicon | replicate 1, z-score of dpERK with insulin | replicate 2, z-score of dpERK with insulin | replicate 1, z-score of dpERK under basal conditions | replicate 1, z-score of ERK-YFP with insulin |
| --- | --- | --- | --- | --- | --- |
| CG5756 | DRSC06950 | 0.19 | 0.7 | 0.46 | 0.07 |
| Srg3 (Sting-regulated gene 3) | DRSC08984 | -0.64 | -0.22 | -0.51 | 0.02 |
| Srg3 (Sting-regulated gene 3) | DRSC10178 | 0.83 | -0.51 | -0.54 | -0.13 |
| BORCS7 + CG13430 | DRSC06392 | -0.22 | 0.16 | -0.03 | 0.43 |
